Consider two molecules from publication PMC6018480.

The target of assay [1] is T1, HrDEF (Habenaria radiata) (UniProt B6ZDS4).
T1 sequence: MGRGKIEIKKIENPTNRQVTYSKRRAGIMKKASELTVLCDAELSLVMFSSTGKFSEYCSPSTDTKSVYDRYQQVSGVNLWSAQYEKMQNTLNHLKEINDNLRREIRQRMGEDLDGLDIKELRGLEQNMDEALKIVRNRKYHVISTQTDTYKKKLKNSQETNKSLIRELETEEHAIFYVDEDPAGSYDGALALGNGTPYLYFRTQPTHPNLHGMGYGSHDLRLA
The assay can be described thus: two-hybrid; GAL4 system; baits as GAL4 DNA-BD fusions in pDEST32 in yeast PJ69-4α, preys as GAL4 AD fusions in pDEST22 in PJ69-4A; activation of ADE on SD/-Leu-Trp-Ade and lacZ by X-gal staining; in triplicate, growth scored after 7 days at 20°C.

In assay [2] the target is HrSEP-1 (Habenaria radiata). The assay is described as above.

Results are given in words; binding and its absence hold for the method and conditions named. Binding can be weak; no strength is given.

In the case of HrSEP-1 (Habenaria radiata), the binding result in assay [1] is reported as “binds”.

B1: HrDEF (protein, UniProt B6ZDS4 1-223)
chain: T1 sequence
In the case of B1, in assay [2], the binding entry is “binds”.
